Reference: US20130035243A1
No constants are given. Whether binding was seen depends on the method and setting. In cells and extracts the contact can be indirect. Some binding calls cover weakened binding; strength is not graded here.

Protein sequences, listed by entry. Tags and fused reporters are not part of them. Lines headed by an entry give the natural chain unless they say otherwise; changes in a name come on top.
UniProt Q99612: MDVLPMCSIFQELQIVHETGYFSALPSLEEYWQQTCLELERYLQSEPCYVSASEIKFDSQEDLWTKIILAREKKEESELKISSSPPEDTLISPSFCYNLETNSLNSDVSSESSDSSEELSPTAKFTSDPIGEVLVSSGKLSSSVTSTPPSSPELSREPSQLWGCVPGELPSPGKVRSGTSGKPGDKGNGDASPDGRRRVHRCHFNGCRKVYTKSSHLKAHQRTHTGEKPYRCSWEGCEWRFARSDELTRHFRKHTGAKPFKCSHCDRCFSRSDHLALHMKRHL

Experiments:
[1] = biological target: HA-wtKLF6 (wild type, full length KLF6 with an additional HA tag) (human) (UniProt Q99612); test: co-immunoprecipitation from cotransfected 293T cells (FLAG/HA beads), Western blot
[2] = biological target: HA-wtKLF6 (wild type, full length KLF6 with an additional HA tag) (human) (UniProt Q99612); test: co-immunoprecipitation from cotransfected 293T cells, Western blot

binding [1]: binds
binding [2]: binds
Substance: FLAG-KLF6SV2 (FLAG-tagged KLF6 splice variant-2) (from UniProt Q99612 1-283)
